Here are results for 3 molecules from paper doi:10.1101/2025.02.12.637848.

Where a chain is given by its changes, count along the chain named. In names and notes the source's numbering stands. These are yes or no findings as the source states them, for the method shown. Binding seen in cells or lysates may run through a third protein. Some results given as binding are weak or reduced against the parent protein; the word gives no strength. Sequences can lack the tags named with a protein.

Holding throughout (assay): co-IP
The target of test [1] is T1, Pex32-3xHA (Saccharomyces cerevisiae) (UniProt P38292).
T1 sequence: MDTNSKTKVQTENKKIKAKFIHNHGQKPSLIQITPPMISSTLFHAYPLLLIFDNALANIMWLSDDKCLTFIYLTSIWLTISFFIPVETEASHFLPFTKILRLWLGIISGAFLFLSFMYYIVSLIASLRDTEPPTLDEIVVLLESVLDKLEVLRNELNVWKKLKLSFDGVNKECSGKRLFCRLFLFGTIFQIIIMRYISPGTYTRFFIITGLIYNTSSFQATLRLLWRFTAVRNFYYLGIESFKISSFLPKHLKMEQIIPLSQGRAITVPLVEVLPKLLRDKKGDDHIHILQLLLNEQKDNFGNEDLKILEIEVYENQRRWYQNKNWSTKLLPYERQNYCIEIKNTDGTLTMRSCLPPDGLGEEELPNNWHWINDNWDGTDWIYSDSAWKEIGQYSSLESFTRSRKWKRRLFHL

For test [2], the target named is T2, Pex29-V5 (Saccharomyces cerevisiae) (UniProt Q03370).
T2 sequence: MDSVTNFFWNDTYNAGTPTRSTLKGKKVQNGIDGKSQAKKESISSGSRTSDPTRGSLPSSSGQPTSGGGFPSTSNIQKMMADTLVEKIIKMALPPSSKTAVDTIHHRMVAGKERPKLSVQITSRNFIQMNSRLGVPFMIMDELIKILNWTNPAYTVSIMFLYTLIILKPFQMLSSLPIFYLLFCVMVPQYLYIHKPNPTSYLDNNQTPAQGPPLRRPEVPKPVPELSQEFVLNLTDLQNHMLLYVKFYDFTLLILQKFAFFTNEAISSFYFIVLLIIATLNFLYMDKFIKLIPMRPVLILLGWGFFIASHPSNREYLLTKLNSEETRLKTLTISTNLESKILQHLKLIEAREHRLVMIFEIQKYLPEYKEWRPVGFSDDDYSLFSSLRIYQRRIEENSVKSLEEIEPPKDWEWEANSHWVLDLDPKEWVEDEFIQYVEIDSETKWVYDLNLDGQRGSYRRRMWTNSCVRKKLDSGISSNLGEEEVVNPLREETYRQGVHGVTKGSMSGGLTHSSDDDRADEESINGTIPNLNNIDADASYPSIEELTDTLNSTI

For test [3], the target named is T3, Pex28-13xMyc (Saccharomyces cerevisiae) (UniProt P38848).
T3 sequence: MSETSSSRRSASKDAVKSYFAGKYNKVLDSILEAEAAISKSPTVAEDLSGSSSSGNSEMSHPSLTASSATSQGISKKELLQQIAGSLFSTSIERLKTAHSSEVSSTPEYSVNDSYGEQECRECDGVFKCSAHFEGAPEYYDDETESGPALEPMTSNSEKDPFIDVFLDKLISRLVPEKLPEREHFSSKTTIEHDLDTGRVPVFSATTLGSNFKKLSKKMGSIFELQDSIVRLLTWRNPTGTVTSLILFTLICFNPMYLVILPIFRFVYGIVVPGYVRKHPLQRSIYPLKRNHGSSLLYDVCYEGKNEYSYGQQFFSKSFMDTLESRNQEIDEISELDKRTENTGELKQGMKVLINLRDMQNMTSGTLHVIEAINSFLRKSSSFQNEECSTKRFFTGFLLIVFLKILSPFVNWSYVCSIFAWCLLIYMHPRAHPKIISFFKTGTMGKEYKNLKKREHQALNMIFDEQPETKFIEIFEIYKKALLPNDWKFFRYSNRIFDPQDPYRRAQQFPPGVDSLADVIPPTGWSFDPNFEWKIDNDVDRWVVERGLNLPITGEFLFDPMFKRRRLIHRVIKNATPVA

B1: Pex30 (protein, UniProt Q06169 1-523)
chain: MSGNTTNVHETRAKFAETLQPRIGGNTTKVIRAALEKNEAESGVSEDNDNGSLEKVNVATSPLLTSTPPTISKALVKLYPYLILIDEFLNVVTWTGKNIWSSVLMLCLFITTVEYFETLVKYFGHLAIIAILWGYSLLDNYIEGTLSSSPTLEDIALLMNRVSLKSDILLSPMVNLGTQDIQRLLYTTVILSPIYVMITWLLLPPRSLMLMVGMFLLTYHSPWSKVARRLLWKFKIVRLLVFYVTGLDLGGINKDQGIFATVQKQVKKLASTENSNGVLSDSKPIRFTYVLYENQRRWLGIGWKPSMLSYERTPWTDEFLNEAPSPENFHLPEETNTMVWRWVDKTWRLDMTNDGAIQVPNSKARTSADPSPDEGFIYYDNTWKKPSKEDSFSKYTRRRRWVRTAELVKTSDFDESVINSNRNSAIEQKVEENSTNGLTAEQELGSNKQEKDNAKKVGEPTTEETKEFAEASNINEGEFERISSTDEEVLKSRARDRLAKVLDDTEEKEQSNPTIGRDSKKAV
As to B1, the binding entry in test [1], in test [2] and in test [3] was “binds” throughout.

B2: Pex30^S446D (protein, UniProt Q06169 1-523)
chain: B1 chain with S446D
As to B2, the binding result in test [2] is reported as “binds”.

B3: Pex30^S446A (protein, UniProt Q06169 1-523)
chain: B1 chain with S446A
For B3, the binding result in test [2] is recorded as “binds”.
